Experimental data as given in PMC4172902.

Columns and labels:
[1] = target: T1, hMCC-SBP-6×His (human MCC isoform 1 with a C-terminal SBP-6×His tag) (human) (UniProt P23508); assay: co-IP; whole cell CHAPS lysates of transduced 8226 cells; anti-FLAG-agarose beads (FLAG-hMCC) or streptavidin-sepharose beads (hMCC-SBP-6×His); 5 washes in 0.5% CHAPS, 20 mM Tris pH 7.4, 150 mM NaCl; immunoblot
T1 sequence: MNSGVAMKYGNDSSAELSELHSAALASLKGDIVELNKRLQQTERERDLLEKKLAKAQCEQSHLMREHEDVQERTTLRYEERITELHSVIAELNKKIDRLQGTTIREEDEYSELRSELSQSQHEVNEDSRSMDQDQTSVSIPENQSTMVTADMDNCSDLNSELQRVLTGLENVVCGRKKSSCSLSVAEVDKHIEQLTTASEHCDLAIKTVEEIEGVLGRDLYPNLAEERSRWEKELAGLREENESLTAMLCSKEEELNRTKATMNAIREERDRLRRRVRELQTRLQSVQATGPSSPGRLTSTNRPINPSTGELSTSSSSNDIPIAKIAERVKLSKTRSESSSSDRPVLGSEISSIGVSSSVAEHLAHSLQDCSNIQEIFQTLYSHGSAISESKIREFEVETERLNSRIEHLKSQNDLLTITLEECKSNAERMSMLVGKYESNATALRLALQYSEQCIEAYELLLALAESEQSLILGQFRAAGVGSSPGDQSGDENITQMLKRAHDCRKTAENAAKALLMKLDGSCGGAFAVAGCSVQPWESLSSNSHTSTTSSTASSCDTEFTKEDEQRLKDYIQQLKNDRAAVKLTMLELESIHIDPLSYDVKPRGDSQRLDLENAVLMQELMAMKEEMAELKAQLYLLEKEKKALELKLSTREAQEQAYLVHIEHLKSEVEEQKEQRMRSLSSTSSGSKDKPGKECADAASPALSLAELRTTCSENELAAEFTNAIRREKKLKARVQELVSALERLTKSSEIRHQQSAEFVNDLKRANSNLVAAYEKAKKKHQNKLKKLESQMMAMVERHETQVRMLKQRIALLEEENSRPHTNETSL

[2] = target: T2, FLAG-hMCC (human MCC isoform 1 with an N-terminal FLAG tag) (human) (UniProt P23508); assay: as above
T2 sequence: T1 sequence

Row | binding [1] | binding [2] | Substance
1 | no binding | no binding | PP2A (human (endogenous in 8226))
2 | no binding | no binding | VDAC (human (endogenous in 8226))

These are yes or no findings as the source states them, for the method shown. Binding seen in cells or lysates may run through a third protein. Sequences can lack the tags named with a protein.
